Experimental findings from PubChem BioAssay AID248 (DTP/NCI, 2004) are described below.

The assay deals with L1210 leukemia ip in BDF1 mice, survival T/C. Nature of the assay: NCI In Vivo Anticancer Drug Screen. Data for tumor model L1210 Leukemia (intraperitoneal) in B6D2F1 (BDF1) mice. The conditions noted are these: T/C endpoint: mean survival time, higher T/C = longer survival.
[1] abbreviates: dose: 100.0 mg/kg/injection, schedule: Q01DX009 (ip), vehicle: saline with Tween-80.
The mark [2] stands for this setting: dose: 200.0 mg/kg/injection, schedule: Q01DX009 (ip), vehicle: saline with Tween-80.
The mark [3] stands for this setting: dose: 400.0 mg/kg/injection, schedule: Q01DX001 (ip), vehicle: other.
Where [4] appears, read: dose: 200.0 mg/kg/injection, schedule: Q04DX003 (ip), vehicle: saline with Tween-80.
Where [5] appears, read: dose: 400.0 mg/kg/injection, schedule: Q04DX003 (ip), vehicle: saline with Tween-80.
Setting [6] is: dose: 200.0 mg/kg/injection, schedule: Q04DX003 (ip), vehicle: saline.
Setting [7] is: dose: 400.0 mg/kg/injection, schedule: Q04DX003 (ip), vehicle: saline.
[8] abbreviates: dose: 100.0 mg/kg/injection, schedule: Q04DX003 (ip), vehicle: saline with Tween-80.
[9] abbreviates: dose: 400.0 mg/kg/injection, schedule: Q04DX003 (ip), vehicle: Klucel (hydroxypropylcellulose) (HPC).
Where [10] appears, read: dose: 100.0 mg/kg/injection, schedule: Q01DX001 (ip), vehicle: saline.
[11] abbreviates: dose: 400.0 mg/kg/injection, schedule: Q01DX001 (ip), vehicle: saline.
Where [12] appears, read: dose: 400.0 mg/kg/injection, schedule: Q04DX002 (ip), vehicle: saline.
The mark [13] stands for this setting: dose: 300.0 mg/kg/injection, schedule: Q01DX001 (ip), vehicle: other.
The mark [14] stands for this setting: dose: 300.0 mg/kg/injection, schedule: Q01DX001 (ip), vehicle: saline.

The list does not hold the whole screen: it gathers tests that were run many times, whatever their T/C, doses with no T/C, and many T/C values between a quarter and a half above the control. Further doses and runs are listed elsewhere. T/C: endpoint of the treated group in % of that of the vehicle group. Some doses have a count of surviving animals in place of a T/C: the source holds a T/C of zero for them, seemingly a mark for toxic or unscored doses. Some doses without a T/C left all or most animals alive at the check, yet need not have been tolerated: survival well below the control is almost never listed, so the zero probably covers shortened survival too. Survivors were counted at the toxicity check, usually on the fifth day, unless a day is given; later deaths do not show. Schedules are NCI's codes, taken here to give the interval after Q, in days (D) or hours (H), and the number of doses after X.

Take `NC(CC[Se]Cc1ccccc1)C(=O)O` (configuration not stated): the survivor count (dose: 50.0 mg/kg/injection, schedule: Q01DX009 (ip), vehicle: saline with Tween-80) was 3 of 6; the survivor count under setting [1] is 0 of 6; the survivor count under setting [2] is on record as 0 of 6.
With `Nc1nccc(NC(c2ccccc2)c2ccccc2)c1N`, the survivor count by setting is: (dose: 25.0 mg/kg/injection, schedule: Q01DX009 (ip), vehicle: DMSO) 3 of 6; (dose: 50.0 mg/kg/injection, schedule: Q01DX009 (ip), vehicle: DMSO) 2 of 6; (dose: 100.0 mg/kg/injection, schedule: Q01DX001 (ip), vehicle: other) 1 of 6; (dose: 200.0 mg/kg/injection, schedule: Q01DX001 (ip), vehicle: other) 0 of 6; under setting [3], 0 of 6.
On to `Cc1ccc(N2CCOC2=O)cc1N1CCOC1=O`, for which the survivor count reads like this: under setting [4], 6 of 6; under setting [5], 6 of 6.
On to `CCNCCCN`, for which the survivor count by setting is: under setting [6], 4 of 6; under setting [7], 0 of 6.
For `C1CC[C@@H]2NCCC[C@H]2C1`, the survivor count (dose: 400.0 mg/kg/injection, schedule: Q01DX001 (ip), vehicle: carboxymethylcellulose (CMC)) is listed as 0 of 4.
As for `CC(Cc1ccccc1)NC(C#N)c1ccccc1` (configuration not stated), the survivor count reads like this: under setting [8], 3 of 6; (dose: 200.0 mg/kg/injection, schedule: Q01DX009 (ip), vehicle: Klucel (hydroxypropylcellulose) (HPC)) 1 of 6; under setting [4], 5 of 6; under setting [9], 0 of 4; under setting [5], 1 of 6.
In the case of `c1ccc(-c2c3ccccc3c(-c3ccccc3)c3c2ccc2ccccc23)cc1`, the survivor count (dose: 100.0 mg/kg/injection, schedule: Q01DX009 (ip), vehicle: Klucel (hydroxypropylcellulose) (HPC)) is recorded as 3 of 3.
For the compound `O=C(O)C1CCCCC1/C=N/Nc1ccc([N+](=O)[O-])cc1[N+](=O)[O-]` (configuration not stated), the survivor count under setting [10] is given as 6 of 6.
Regarding `c1ccc([P+](CCCCCCCCCC[P+](c2ccccc2)(c2ccccc2)c2ccccc2)(c2ccccc2)c2ccccc2)cc1`, the survivor count (dose: 40.0 mg/kg/injection, schedule: Q01DX001 (ip), vehicle: saline) is reported as 0 of 4; the survivor count (dose: 50.0 mg/kg/injection, schedule: Q01DX001 (ip), vehicle: saline) is given as 0 of 4; the survivor count (dose: 80.0 mg/kg/injection, schedule: Q01DX001 (ip), vehicle: saline) is on record as 0 of 4; the survivor count under setting [10] is reported as 0 of 4; the survivor count (dose: 200.0 mg/kg/injection, schedule: Q01DX001 (ip), vehicle: saline) is 0 of 4; the survivor count under setting [11] is 0 of 4.
Take `CN(C)CCOC(=O)c1ccc(N)cc1`: the survivor count under setting [7] is 2 of 6.
In the case of `NC1(C(=O)O)C2CC3CC(C2)CC1C3` (configuration not stated), under “dose: 400.0 mg/kg/injection, schedule: Q04DX003 (ip), vehicle: alcohol”, the survivor count is recorded as 6 of 6.
In the case of `CC1(NC(=O)N(CCCl)N=O)CCCC1`, the survivor count runs as follows: (dose: 375.0 mg/kg/injection, schedule: Q01DX001 (ip), vehicle: carboxymethylcellulose (CMC)) 6 of 6; (dose: 500.0 mg/kg/injection, schedule: Q01DX001 (ip), vehicle: carboxymethylcellulose (CMC)) 6 of 6; (dose: 750.0 mg/kg/injection, schedule: Q01DX001 (ip), vehicle: carboxymethylcellulose (CMC)) 6 of 6.
`Cc1cc([N+](=O)[O-])ccc1NS(=O)(=O)c1ccccc1`: the survivor count under setting [9] is 6 of 6.
Consider `CC(C)c1cc(O)ccc1O`, for which the survivor count under setting [3] is recorded as 1 of 6.
With `O=C1CCSC(=O)N1SC(Cl)(Cl)Cl`, the survivor count (dose: 50.0 mg/kg/injection, schedule: Q04DX003 (ip), vehicle: saline with Tween-80) was 3 of 6; the survivor count under setting [1] is reported as 0 of 6; the survivor count under setting [8] is given as 1 of 6; the survivor count (dose: 100.0 mg/kg/injection, schedule: Q04DX003 (ip), vehicle: saline) was 0 of 6; the survivor count under setting [2] is on record as 0 of 6; the survivor count under setting [6] is 1 of 6. Also, under setting [7], the survivor count was 0 of 6.
As for `O=C(O)C1CC12c1ccccc1-c1ccccc12` (configuration not stated), the survivor count under setting [11] is on record as 3 of 6.
As for `CCCCNC(=O)c1c(Cl)c(Cl)c(Cl)c(Cl)c1C(=O)O`, under “dose: 400.0 mg/kg/injection, schedule: Q04DX002 (ip), vehicle: saline with Tween-80”, the survivor count was 2 of 3.
On to `CCN(CC)CC(=O)NCC(CCN1CCCC1)(CC(C)C)c1cccc2ccccc12` (configuration not stated), for which the survivor count under setting [12] is on record as 1 of 3.
Take `C/C(=N\O)c1ccc[n+](Cc2ccc(C)cc2)c1`: the survivor count (dose: 37.5 mg/kg/injection, schedule: Q01DX001 (ip), vehicle: other) was 2 of 6; the survivor count (dose: 75.0 mg/kg/injection, schedule: Q01DX001 (ip), vehicle: other) is recorded as 0 of 6; the survivor count (dose: 150.0 mg/kg/injection, schedule: Q01DX001 (ip), vehicle: other) is reported as 0 of 6; the survivor count under setting [13] is listed as 0 of 6.
Regarding `CC1=CC(=O)C(Sc2ccc(C)cc2)=CC1=O`, the survivor count under setting [13] is reported as 3 of 6.
`CCCCCCCCOP(=O)(OCCCCCCCC)c1ccccc1`: the survivor count is, setting by setting: (dose: 75.0 mg/kg/injection, schedule: Q01DX001 (ip), vehicle: saline) 6 of 6; (dose: 150.0 mg/kg/injection, schedule: Q01DX001 (ip), vehicle: saline) 3 of 6; under setting [14], 1 of 6.
As to `N#Cc1oc2ccccc2c1OC(=O)C(F)(F)F`, the survivor count under setting [5] was 0 of 6.
With `Cc1cc(Cl)ccc1NC(=O)Nc1ccc(Cl)c(Cl)c1`, the survivor count reads like this: (dose: 100.0 mg/kg/injection, schedule: Q04DX003 (ip), vehicle: Klucel (hydroxypropylcellulose) (HPC)) 6 of 6; (dose: 200.0 mg/kg/injection, schedule: Q04DX003 (ip), vehicle: Klucel (hydroxypropylcellulose) (HPC)) 6 of 6.
Consider `NC(=O)c1ccccc1NC(=O)CCCOc1ccccc1`, for which the survivor count under setting [9] is on record as 6 of 6.
As for `CCC(O)C(CCN(C)C)(C(=O)N(C)C)c1ccccc1` (configuration not stated), under setting [14], the survivor count is 0 of 6.
For `COc1ccc(CCN=C(N)CCl)cc1`, the survivor count under setting [12] is given as 0 of 3.
